# In PubChem BioAssay AID2685 (National Center for Advancing Translational Sciences (NCATS), 2010):
# The other results are listed elsewhere or left out. Shown are side measurements of this screen, not its main read-out; they come without a call. Most of these compounds were active or inconclusive in the main read-out, so they are no random draw. Potencies come from curve fits of mixed quality, noted in brackets. Where a SMILES comes first, the peptide text is derived from it. The star is where a group is joined. Cbz = O=C(OCc1ccccc1)*
# Test: qHTS Assay for Lipid Storage Modulators in Drosophila S3 Cells;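 for cell number change: cells counted by Cell Tracker Red CMTPX staining in the red channel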
# Conditions: BODIPY lipid droplet fluorescence, 18-24 h; for cell number change: measured here: cell count max response, cells fed with added oleic acid
# How it was run: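 Drosophila S3 cells loaded with oleic acid (400 uM, as added) and compounds at several concentrations; lipid droplets imaged by 488-nm laser-scanning cytometry, 500–530 nm intensity and object ratio to cell channel. Percent activity normalized to 20 uM Triacsin C.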
# [1] = measured here: lipid fluorescence (Fed channel) AC50, cells fed with added oleic acid
# [2] = measured here: cell number channel AC50, cells fed with added oleic acid
Structure (SMILES),cell number change,AC50 [1],AC50 [2]
CC(=O)Nc1ccc(/C=C2\Sc3ccccc3C2=O)cc1,22.2%,"18.4 µM [rising, partial curve, poor fit]",–
COC(=O)c1oc2ccccc2c1NC(=O)c1ccccc1O,-25.5%,"0.651 µM [falling, full curve, poor fit]",–
Cc1ccc(C2CC(=O)c3cnc(N4CCc5ccccc5C4)nc3C2)cc1 (stereo not drawn),1.55%,"0.058 µM [falling, full curve, poor fit]",–
CCOC(=O)c1cnn(-c2cc(C)nc3c(-c4ccccc4)cnn23)c1N,11.8%,–,–
Cc1ccc2nsnc2c1N,-28%,–,"0.00651 µM [falling, full curve, poor fit]"
Cc1ccc(/C=C/C(=O)OCC(=O)NC(C)C)o1,-26%,"1.3 µM [falling, full curve, poor fit]",–
O=C(Nc1ccc(N2CCOCC2)cc1)c1ccc(Br)o1,-25.6%,–,–
CC(C)C(NC(=O)C(Cc1ccccc1)NC(=O)OCc1ccccc1)C(=O)O (stereo not drawn) (Cbz-Phe-Val-OH; configuration not given here),17.6%,"13 µM [rising, single point]",–
COC(=O)c1ccc(COc2ccc(C(C)(C)C)cc2)o1,45.4%,"14.6 µM [rising, partial curve]","13 µM [rising, partial curve, poor fit]"
CCCCSc1nc2sc3c(c2c(=O)[nH]1)CCC3,–,"0.411 µM [falling, partial curve]","1.64 µM [falling, partial curve]"
CN(C)c1ccc(/C=N/NC(=O)c2ccc3c(c2)OCO3)cc1,70.3%,"29.1 µM [rising, single point]","29.1 µM [rising, single point]"
CC(=O)C1=C(C)N(c2ccccc2)C(=O)C1(NS(=O)(=O)c1ccc(N)cc1)C(F)(F)F (stereo not drawn),-18.1%,"0.103 µM [falling, full curve, poor fit]",–
O=C(C1=C(O)C(=O)N(CCN2CCOCC2)C1c1cccnc1)c1cc2ccccc2o1 (stereo not drawn),-4.27%,"6.51 µM [falling, single point]",–
NC(=O)COC(=O)CNC(=O)c1cc(Cl)cc([N+](=O)[O-])c1,-34.7%,"0.00651 µM [falling, full curve, poor fit]","0.00517 µM [falling, full curve, poor fit]"
Cc1ccc(NS(=O)(=O)c2ccc(CCC(=O)NCCO)cc2)cc1,17.5%,"18.4 µM [falling, partial curve]",–
Cc1cccc(C)c1OCc1cc(C(=O)NCC2CCCCC2)no1,-8.78%,–,–
O=C1CC(c2ccc(O)cc2)Oc2ccccc21 (stereo not drawn),26%,"29.1 µM [rising, single point]",–
Cc1cc2c(c(=O)n1C)C(C(C)C)C(C#N)=C(N)O2 (stereo not drawn),18.8%,"0.651 µM [falling, single point]",–
O=C(NCCCCc1ccccc1)c1cc([N+](=O)[O-])cc([N+](=O)[O-])c1,-4.91%,–,–
CC1(C)CC(CCC(=O)NC(=S)Nc2ccccc2Cl)C(=O)O1 (stereo not drawn),23.9%,–,"0.146 µM [rising, full curve, poor fit]"

# In the list so far, these contain a nitro group on carbon:
Structure (SMILES),cell number change,AC50 [1],AC50 [2]
NC(=O)COC(=O)CNC(=O)c1cc(Cl)cc([N+](=O)[O-])c1,-34.7%,"0.00651 µM [falling, full curve, poor fit]","0.00517 µM [falling, full curve, poor fit]"
O=C(NCCCCc1ccccc1)c1cc([N+](=O)[O-])cc([N+](=O)[O-])c1,-4.91%,–,–

# Next part

Structure (SMILES),cell number change,AC50 [1],AC50 [2]
Clc1ccc(-c2cc(C3CCNCC3)[nH]n2)cc1,–,"25.9 µM [rising, partial curve]",–
Cc1ccc(-n2c(=O)cc(N3CCN(Cc4ccccc4)CC3)[nH]c2=O)cc1,-29.8%,"20.6 µM [falling, single point]",–
Cc1cccc2cc3cccc(C)c3nc12,-24.2%,"1.64 µM [falling, full curve]",–
CC(=O)Nc1ccc(/C(C)=N/NC(=O)C2CC2c2ccccc2)cc1 (stereo not drawn),32.7%,"0.411 µM [rising, partial curve]","25.9 µM [rising, single point]"
CCOc1ccc(S(=O)(=O)N(CC)CC(=O)NCc2cccnc2)cc1C,20.1%,"1.46 µM [rising, partial curve]",–
CSc1nc(C)cc(-n2cc(F)c(=O)[nH]c2=O)n1,0.881%,"3.66 µM [falling, single point]",–
CCn1cc(C(=O)NCCCN2CCCC(C)C2)c(=O)c2cc(S(=O)(=O)N3CCOCC3)ccc21 (stereo not drawn),16.5%,"29.1 µM [rising, single point]",–
Cc1cccc(C)c1OCC(=O)Nn1c(C)nc2ccccc2c1=O,17.5%,"1.3 µM [rising, full curve]",–
CC1CCC(NC(=O)C2CCC(CNS(=O)(=O)c3cccc4nsnc34)CC2)CC1 (stereo not drawn),-36.2%,–,"0.731 µM [falling, full curve]"
CSc1nsc2nc(=O)c(/C=C3\C=Nc4ccccc43)c(N)n12,8.53%,–,"3.66 µM [rising, single point]"
Cn1c(=O)c(C(=O)NCCc2ccccc2)c(O)c2ccccc21,-19.8%,"0.58 µM [falling, single point]",–
C/C(=N\NC(=O)c1nn(C)c(C)c1Br)c1cccc(NC(=O)c2ccc(F)cc2)c1,–,"20.6 µM [rising, single point]",–
O=C1CSC(c2ccncc2)N1Cc1ccccc1 (stereo not drawn),–,"0.092 µM [falling, single point]",–
COc1ccc(S(=O)(=O)N(C)C)cc1NC(=O)CSc1nnc(-c2cccnc2)o1,–,"0.58 µM [falling, single point]",–
O=C(NNC(=O)c1cccnc1SCc1cccc([N+](=O)[O-])c1)c1cccnc1,3.56%,–,–
O=C(CCCN1C(=O)c2cccc3cccc(c23)C1=O)N1CCN(c2ccccn2)CC1,-1.65%,–,–
CCOc1ccccc1C(=O)NC1CCN(Cc2nnnn2C2CCCC2)CC1,-1.82%,"6.51 µM [rising, single point]",–
CCOc1ccc(C(=O)Nc2ccc(NC(=O)c3ccco3)c(Cl)c2)cc1Br,–,–,"0.164 µM [rising, full curve, poor fit]"
Cc1ccc(NC(=S)NCc2ccccc2)c(C)c1,-2.03%,"23.1 µM [falling, single point]",–
CCOc1ccc(CCN2CN(C3CCCCC3)CNC2=S)cc1OCC,-35.8%,–,"0.184 µM [falling, full curve, poor fit]"
